Results published in article doi:10.1101/2024.01.16.575964.
These are yes or no findings as the source states them, for the method shown. In cells and extracts the contact can be indirect. Some binding calls cover weakened binding; strength is not graded here.

By UniProt entry, the sequences of proteins in these tests, tags left out.
UniProt P36404: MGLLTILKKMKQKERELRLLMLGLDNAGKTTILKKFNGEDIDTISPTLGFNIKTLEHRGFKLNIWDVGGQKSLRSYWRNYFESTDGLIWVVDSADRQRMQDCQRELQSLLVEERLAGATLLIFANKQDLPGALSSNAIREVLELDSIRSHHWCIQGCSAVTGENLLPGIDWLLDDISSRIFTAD
UniProt Q96SN8: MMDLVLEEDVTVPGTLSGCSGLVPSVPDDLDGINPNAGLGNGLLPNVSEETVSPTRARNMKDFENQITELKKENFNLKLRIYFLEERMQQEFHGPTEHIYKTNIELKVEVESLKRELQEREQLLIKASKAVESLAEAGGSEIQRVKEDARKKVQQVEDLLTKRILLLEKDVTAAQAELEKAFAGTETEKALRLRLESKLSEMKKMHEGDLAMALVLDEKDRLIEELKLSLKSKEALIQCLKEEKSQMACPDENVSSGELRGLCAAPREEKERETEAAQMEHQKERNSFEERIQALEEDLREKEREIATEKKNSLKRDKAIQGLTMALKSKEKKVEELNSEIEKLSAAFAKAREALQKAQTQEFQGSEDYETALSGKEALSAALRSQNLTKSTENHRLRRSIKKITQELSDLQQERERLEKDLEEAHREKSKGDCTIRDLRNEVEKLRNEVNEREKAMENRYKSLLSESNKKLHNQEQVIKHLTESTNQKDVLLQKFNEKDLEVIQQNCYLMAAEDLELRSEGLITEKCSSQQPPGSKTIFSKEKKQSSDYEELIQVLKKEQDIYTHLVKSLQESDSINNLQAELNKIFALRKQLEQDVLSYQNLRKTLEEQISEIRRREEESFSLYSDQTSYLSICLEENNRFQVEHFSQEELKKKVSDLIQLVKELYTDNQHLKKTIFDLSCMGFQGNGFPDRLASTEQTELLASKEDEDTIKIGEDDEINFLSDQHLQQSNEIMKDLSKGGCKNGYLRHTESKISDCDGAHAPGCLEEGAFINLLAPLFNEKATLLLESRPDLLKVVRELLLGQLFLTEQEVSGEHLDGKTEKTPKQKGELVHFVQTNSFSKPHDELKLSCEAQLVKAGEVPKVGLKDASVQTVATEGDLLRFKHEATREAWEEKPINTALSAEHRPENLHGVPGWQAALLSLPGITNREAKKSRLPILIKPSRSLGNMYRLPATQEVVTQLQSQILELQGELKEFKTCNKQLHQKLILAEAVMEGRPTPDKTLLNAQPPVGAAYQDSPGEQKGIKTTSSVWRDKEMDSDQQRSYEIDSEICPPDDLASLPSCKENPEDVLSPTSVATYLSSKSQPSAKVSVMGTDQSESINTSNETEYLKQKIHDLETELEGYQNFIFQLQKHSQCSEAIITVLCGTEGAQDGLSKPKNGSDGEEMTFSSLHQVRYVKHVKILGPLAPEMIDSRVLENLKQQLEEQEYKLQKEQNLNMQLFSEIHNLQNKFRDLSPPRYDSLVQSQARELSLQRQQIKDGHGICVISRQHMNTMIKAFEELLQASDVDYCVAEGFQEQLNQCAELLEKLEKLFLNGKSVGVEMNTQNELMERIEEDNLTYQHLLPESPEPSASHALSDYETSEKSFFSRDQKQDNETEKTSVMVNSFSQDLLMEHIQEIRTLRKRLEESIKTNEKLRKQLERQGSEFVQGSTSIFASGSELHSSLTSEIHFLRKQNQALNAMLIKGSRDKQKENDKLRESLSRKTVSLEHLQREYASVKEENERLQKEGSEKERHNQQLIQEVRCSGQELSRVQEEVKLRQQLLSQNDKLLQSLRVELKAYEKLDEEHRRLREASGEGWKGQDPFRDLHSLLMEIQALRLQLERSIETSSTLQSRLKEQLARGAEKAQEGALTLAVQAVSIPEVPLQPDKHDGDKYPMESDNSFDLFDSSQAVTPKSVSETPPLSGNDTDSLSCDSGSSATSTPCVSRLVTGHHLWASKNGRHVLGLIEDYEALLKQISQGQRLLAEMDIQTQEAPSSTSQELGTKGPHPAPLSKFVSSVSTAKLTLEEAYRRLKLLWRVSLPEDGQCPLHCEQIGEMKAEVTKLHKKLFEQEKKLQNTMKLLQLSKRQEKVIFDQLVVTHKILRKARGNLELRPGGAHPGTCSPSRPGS

Target: ADP ribosylation factor-like GTPase 2 (Arl2), HA-tagged (human) (UniProt P36404)
Test: co-IP

For “CDK5 Regulatory Subunit Associated Protein 2 (Cdk5rap2/Cep215), Myc-tagged, in HEK293 cells (from UniProt Q96SN8 1-1893)”, the binding was “binds”.
